For part of these data: Negatives hold for the conditions tested. For part of these data: At least one verdict rests on a figure or table, not on a statement of the authors. For part of these data: Tags and fusion partners may be left off the protein sequences shown. Construct, isoform or probe ends are uncertain for at least one entry.
How the values were obtained:
[1] = target: T1, Rok (Bacillus subtilis 168) (UniProt O34857); assay: bridging pull-down; settings: 0.27 uM Rok, TPM: 50 mM KCl, bridging: 50 mM KCl, 25 C, recombinant protein, residues 1-191, label: 32P
T1 sequence (looked up): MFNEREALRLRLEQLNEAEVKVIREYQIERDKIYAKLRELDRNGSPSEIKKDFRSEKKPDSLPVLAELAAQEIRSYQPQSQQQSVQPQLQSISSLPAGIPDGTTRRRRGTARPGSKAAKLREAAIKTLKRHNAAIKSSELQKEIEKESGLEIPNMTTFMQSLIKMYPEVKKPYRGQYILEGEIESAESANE

[2] = target: sRok (Bacillus subtilis (plasmid pLS20)) (UniProt E9RJ31); assay: MST; settings: MST: 10 mM Tris-HCl pH 8, 150 mM KCl, 5% glycerol, 0.05% Tween20, 0.08 mg/ml acetylated BSA, RT, 40 nM DNA, label: 5'-Cy5 top strand
[3] = target: T1, Rok (Bacillus subtilis 168); assay: MST; settings: MST: 10 mM Tris-HCl pH 8, 150 mM KCl, 5% glycerol, 0.05% Tween20, 0.08 mg/ml acetylated BSA, RT, 40 nM DNA, recombinant protein, residues 1-191, label: 5'-Cy5 top strand
[4] = bait N1, bridging read-out only

Sequence | binding result [1, 4] | binding result ([1]; bait N1) | other results
CTTAGTGGCAAATATATAATGTATAAGTTCTGGAGTAGTATGGTAATAACTATTTTATTTTCGATAGCTTGAATG (double strand) [75 bp prey] | no binding |  | 
GGAGTAGTATGGTAATAACTATTTT (double strand) [25 bp prey] | no binding |  | 
TTTCTCCAATTGATTTAGTCTATTCGATATATGGACTCTTAGTGGCAAATATATAATGTATAAGTTCTGGAGTAGTATGGTAATAACTATTTTATTTTCGATAGCTTGAATGTTTATTTTCCCAGAGACATTAGGTGGTCTTTCAAACTC (double strand) [150 bp prey] |  | binds | 
CGGCGCAAATTCGTGACCAGTTGCATCAGCTGCGTGAGCTGTTTATCGCAGCATCGTAACAGGATAGTGAAGAAGACT (double strand) [MST aspecific 78 bp] |  |  | binding result ([2]; <20 mM MgCl2, Kd only in figure, recombinant …): binds; binding result ([2]; >=20 mM MgCl2, too weak to fit, recombinant protein): no binding; Kd ([3]; >25 mM MgCl2): 800 µM
GCAAATATATAATGTATAAGTTCTGGAGTAGTATGGTAATAACTATTTTA (double strand) [50 bp prey] | no binding |  | 
TCTCTTCAAATGTTTTCTCCAATTGATTTAGTCTATTCGATATATGGACTCTTAGTGGCAAATATATAATGTATAAGTTCTGGAGTAGTATGGTAATAACTATTTTATTTTCGATAGCTTGAATGTTTATTTTCCCAGAGACATTAGGTGGTCTTTCAAACTCAATAATGTGGGT (double strand) [175 bp prey] |  | binds | 
CGGCGCAAATTCGTGACCAGTTGCATCAGCTACTAGAGCTGTTTATCGCAGCATCGTAACAGGATAGTGAAGAAGACT (double strand) [MST specific 78 bp (TACTA)] |  |  | binding result ([2]; <20 mM MgCl2, Kd only in figure, no improvement over aspecific, recombinant protein): binds; binding result ([2]; >=20 mM MgCl2, too weak to fit, no improvement by TACTA site, recombinant protein): no binding; Kd ([3]; >35 mM MgCl2): 800 µM
ATTTAGTCTATTCGATATATGGACTCTTAGTGGCAAATATATAATGTATAAGTTCTGGAGTAGTATGGTAATAACTATTTTATTTTCGATAGCTTGAATGTTTATTTTCCCAGAGACATTAGGTG (double strand) [125 bp prey] |  | binds | 
